Experimental data: the supplement of paper PMC10849652
Some of the results follow.

Chains of the proteins cited; added tags and fusions are not shown. Lines headed by an entry give the natural chain unless they say otherwise; changes in a name come on top.
UniProt Q14315, whole entry, looked up: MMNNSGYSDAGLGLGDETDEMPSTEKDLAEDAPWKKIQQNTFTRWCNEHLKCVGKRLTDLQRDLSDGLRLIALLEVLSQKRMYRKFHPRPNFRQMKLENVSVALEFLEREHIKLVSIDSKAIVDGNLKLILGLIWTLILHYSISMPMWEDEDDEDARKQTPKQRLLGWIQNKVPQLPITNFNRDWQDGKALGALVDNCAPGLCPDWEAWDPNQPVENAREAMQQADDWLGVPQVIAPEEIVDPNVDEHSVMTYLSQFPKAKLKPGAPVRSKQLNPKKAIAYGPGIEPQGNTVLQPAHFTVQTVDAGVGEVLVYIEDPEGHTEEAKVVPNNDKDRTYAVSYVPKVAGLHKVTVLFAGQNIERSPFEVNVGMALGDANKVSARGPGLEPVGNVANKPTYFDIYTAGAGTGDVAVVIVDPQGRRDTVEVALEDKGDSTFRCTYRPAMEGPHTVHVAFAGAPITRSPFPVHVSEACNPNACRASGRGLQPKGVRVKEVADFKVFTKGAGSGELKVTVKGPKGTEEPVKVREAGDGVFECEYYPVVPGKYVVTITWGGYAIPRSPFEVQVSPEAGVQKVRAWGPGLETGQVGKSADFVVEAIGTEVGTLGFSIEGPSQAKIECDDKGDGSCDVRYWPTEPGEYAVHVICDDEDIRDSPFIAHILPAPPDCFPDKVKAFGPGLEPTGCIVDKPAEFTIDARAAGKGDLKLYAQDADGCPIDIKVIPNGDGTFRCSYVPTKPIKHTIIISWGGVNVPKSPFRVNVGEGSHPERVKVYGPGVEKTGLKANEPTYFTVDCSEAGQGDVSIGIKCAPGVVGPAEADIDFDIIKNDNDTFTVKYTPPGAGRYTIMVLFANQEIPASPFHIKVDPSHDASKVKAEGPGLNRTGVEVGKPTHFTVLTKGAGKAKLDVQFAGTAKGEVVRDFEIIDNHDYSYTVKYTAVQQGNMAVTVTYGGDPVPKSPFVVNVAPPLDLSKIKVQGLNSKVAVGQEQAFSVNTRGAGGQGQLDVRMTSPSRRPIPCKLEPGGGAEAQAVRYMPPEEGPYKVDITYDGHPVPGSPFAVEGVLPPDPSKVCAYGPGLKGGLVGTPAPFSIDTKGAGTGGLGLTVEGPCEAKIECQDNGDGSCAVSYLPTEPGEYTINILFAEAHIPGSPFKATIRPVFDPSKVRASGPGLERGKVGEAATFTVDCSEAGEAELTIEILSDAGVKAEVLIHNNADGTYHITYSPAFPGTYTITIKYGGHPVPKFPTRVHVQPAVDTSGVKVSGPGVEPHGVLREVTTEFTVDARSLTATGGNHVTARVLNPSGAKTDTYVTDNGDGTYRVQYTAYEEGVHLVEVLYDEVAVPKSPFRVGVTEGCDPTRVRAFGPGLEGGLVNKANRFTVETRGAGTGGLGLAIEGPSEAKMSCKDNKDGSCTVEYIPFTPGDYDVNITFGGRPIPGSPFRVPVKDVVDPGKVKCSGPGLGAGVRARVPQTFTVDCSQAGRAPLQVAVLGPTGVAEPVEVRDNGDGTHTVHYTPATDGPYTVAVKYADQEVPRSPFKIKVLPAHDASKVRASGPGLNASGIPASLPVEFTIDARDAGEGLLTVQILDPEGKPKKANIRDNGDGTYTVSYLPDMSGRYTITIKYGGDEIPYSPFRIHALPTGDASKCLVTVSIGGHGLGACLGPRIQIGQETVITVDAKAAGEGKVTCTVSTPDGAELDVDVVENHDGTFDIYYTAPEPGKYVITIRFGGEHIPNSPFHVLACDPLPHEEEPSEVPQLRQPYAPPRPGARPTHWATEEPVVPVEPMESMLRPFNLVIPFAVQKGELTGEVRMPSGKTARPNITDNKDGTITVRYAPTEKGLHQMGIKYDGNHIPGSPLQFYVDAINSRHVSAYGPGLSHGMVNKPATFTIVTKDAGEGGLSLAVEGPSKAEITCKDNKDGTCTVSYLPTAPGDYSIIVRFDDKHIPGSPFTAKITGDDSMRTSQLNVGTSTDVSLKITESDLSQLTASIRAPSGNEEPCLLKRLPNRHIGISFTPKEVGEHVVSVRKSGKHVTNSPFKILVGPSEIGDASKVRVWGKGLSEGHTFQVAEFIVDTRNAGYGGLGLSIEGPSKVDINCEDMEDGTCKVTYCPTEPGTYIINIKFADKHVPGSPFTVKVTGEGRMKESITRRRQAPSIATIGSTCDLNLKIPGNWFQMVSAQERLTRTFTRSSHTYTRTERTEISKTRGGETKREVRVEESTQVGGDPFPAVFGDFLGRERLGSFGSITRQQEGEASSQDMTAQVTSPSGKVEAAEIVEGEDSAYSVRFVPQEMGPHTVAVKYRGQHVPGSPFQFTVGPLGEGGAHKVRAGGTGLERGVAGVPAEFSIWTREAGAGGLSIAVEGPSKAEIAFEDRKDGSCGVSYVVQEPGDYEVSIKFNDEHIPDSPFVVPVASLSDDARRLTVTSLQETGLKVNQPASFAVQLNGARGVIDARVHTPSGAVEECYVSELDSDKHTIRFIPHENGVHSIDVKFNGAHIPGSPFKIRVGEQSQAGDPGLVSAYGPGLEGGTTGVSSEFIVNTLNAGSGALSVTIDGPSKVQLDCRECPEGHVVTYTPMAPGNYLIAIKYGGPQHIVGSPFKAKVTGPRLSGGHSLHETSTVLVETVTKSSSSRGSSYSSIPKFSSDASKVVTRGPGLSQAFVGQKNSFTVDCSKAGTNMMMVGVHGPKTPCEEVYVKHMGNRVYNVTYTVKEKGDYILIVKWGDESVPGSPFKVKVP
UniProt Q52LJ0: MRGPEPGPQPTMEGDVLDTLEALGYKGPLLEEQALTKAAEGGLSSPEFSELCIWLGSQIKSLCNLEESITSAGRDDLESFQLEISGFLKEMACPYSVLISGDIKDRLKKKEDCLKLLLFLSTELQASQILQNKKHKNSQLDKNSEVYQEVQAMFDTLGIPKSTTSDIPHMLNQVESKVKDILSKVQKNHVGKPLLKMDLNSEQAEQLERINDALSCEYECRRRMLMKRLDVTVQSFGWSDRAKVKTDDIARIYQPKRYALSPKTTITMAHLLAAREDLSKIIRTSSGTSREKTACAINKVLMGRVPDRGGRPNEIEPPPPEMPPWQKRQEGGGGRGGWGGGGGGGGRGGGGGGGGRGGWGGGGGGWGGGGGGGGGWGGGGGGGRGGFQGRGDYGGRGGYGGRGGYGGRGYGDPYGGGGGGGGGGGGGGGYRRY
UniProt Q9UHY8: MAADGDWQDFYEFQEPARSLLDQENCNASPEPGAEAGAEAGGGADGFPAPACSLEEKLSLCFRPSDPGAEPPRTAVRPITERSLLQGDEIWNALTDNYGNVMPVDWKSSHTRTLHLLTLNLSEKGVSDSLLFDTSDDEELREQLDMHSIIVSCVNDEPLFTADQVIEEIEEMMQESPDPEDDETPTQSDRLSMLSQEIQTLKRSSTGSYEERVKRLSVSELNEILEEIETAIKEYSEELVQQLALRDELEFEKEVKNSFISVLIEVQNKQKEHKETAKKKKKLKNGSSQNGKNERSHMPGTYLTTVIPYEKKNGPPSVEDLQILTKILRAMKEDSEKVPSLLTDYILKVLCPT
UniProt Q86UX7, whole entry, looked up: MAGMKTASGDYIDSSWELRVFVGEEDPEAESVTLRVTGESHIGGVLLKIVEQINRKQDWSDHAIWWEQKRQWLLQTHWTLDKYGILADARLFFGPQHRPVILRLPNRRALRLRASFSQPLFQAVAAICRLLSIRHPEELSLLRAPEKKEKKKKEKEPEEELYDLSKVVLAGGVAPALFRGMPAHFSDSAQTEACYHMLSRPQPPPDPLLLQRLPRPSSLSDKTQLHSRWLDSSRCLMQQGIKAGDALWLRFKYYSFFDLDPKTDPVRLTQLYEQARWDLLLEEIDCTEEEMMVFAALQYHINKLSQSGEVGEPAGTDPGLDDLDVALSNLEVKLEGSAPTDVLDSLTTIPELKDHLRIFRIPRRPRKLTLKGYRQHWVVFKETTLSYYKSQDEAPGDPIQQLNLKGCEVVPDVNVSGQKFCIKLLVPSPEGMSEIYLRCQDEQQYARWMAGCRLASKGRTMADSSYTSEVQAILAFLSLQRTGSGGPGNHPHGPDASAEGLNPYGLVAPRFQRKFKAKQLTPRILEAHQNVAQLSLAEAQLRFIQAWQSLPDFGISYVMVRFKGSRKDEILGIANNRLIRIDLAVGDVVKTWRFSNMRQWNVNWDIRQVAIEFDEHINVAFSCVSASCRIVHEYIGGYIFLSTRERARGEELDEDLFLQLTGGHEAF
UniProt Q6UN15: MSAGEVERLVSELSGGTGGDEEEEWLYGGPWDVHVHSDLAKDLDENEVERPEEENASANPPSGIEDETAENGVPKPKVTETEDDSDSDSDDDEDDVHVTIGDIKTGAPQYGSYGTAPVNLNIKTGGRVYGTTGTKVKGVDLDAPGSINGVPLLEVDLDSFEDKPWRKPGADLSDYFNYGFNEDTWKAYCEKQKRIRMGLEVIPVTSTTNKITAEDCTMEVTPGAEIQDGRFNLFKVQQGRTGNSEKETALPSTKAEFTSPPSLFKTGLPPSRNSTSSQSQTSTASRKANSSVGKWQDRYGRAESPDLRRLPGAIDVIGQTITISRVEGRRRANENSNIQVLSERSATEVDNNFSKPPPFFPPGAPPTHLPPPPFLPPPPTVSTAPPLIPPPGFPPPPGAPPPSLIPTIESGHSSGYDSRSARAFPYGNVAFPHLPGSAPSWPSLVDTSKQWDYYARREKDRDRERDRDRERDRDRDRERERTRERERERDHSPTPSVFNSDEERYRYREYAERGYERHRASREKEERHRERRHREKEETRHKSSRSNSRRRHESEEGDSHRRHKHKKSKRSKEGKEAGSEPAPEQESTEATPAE
UniProt Q9UK99: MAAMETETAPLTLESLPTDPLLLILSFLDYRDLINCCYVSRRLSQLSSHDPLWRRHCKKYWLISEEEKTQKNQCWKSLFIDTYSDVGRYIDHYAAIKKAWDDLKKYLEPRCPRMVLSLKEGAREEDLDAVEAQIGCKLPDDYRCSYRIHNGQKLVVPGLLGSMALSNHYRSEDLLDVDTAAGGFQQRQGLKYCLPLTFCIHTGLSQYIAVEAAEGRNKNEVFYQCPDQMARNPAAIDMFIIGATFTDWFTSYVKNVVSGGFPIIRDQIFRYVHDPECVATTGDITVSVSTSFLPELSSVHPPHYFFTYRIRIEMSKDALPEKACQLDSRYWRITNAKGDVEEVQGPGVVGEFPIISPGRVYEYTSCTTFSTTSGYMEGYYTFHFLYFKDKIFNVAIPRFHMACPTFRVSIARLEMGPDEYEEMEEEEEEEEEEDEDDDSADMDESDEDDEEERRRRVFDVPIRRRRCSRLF
UniProt Q13045: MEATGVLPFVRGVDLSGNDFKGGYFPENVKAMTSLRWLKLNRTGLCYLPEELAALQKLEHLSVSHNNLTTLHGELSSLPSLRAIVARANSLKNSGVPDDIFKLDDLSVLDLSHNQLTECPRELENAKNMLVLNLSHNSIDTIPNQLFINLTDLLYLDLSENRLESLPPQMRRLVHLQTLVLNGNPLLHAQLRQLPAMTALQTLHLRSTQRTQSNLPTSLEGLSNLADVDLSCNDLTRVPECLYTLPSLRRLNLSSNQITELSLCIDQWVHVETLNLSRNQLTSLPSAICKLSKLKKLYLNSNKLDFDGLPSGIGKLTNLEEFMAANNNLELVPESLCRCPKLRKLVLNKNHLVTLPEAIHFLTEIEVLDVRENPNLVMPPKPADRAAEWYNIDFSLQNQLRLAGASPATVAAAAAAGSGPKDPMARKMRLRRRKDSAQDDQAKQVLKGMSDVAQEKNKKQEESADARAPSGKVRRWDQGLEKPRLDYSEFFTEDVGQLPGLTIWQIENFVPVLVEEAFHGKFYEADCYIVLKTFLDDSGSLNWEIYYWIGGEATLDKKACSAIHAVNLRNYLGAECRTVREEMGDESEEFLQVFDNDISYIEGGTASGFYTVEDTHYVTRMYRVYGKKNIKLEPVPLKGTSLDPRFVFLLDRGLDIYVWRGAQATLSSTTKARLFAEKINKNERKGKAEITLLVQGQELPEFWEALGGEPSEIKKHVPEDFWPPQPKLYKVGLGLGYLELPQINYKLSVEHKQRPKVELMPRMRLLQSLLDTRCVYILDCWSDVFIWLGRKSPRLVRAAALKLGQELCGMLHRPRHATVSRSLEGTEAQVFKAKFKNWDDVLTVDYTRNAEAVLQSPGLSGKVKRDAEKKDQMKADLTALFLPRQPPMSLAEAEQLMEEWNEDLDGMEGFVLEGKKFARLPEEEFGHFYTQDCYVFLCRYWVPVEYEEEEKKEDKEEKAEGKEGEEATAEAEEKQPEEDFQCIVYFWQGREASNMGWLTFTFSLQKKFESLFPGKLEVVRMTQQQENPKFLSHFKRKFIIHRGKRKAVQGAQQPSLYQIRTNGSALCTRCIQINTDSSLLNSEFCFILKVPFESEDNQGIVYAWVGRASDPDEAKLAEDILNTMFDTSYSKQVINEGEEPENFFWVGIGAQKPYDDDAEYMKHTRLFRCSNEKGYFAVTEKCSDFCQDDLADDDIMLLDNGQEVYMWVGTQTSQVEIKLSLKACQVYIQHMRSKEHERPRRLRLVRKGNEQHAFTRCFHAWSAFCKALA

Legend:
Assay in all cases: log2 fold change, soluble protein after heating vs DMSO (PISA); higher = thermal stabilisation; K562 lysate, 10 uM; active = over 0.2 and 3.5 SD of the protein, either way, in both replicates (recomputed)
vemurafenib = compound: CCCS(=O)(=O)Nc1ccc(F)c(C(=O)c2c[nH]c3ncc(-c4ccc(Cl)cc4)cc23)c1F [vemurafenib]
Method in brief: (§1)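 Pellets of K562 cells were dounce-homogenised in PBS pH 7.4 with 1 mM MgCl2, and the crude extract was held at 1 mg/mL protein for a 30 min treatment with 10 μM compound. Aliquots were heated for 3 min over 48°C-58°C and pooled before NP-40 was added to 0.5% at 4°C. The supernatant from 21,000xg for 90 min was quantified by TMTpro 16plex LC-MS/MS with channel sums equalised. Values are reported from duplicates as log-two fold change in thermal stability relative to solvent controls.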

[1] = compound: CCCS(=O)(=O)Nc1ccc(F)c(C(=O)c2c[nH]c3ncc(Cl)cc23)c1F
Method in brief: as §1

barasertib = compound: CCN(CCCOc1ccc2c(Nc3cc(CC(=O)Nc4cccc(F)c4)[nH]n3)ncnc2c1)CCOP(=O)(O)O [barasertib]
Method in brief: as §1

[2] = compound: CC[C@@H]1C(=O)N(C)c2cnc(Nc3ccc(C(=O)NC4CCN(C)CC4)cc3OC)nc2N1C1CCCC1
Method in brief: as §1

volasertib = compound: CC[C@@H]1C(=O)N(C)c2cnc(Nc3ccc(C(=O)N[C@H]4CC[C@H](N5CCN(CC6CC6)CC5)CC4)cc3OC)nc2N1C(C)C [volasertib]
Method in brief: as §1

[3] = compound: CCn1c(C(=O)N(C2CC2)C2CC2)cc2c3c(ncn3C)c(Nc3cc(C)n(C)n3)nc21
Method in brief: as §1

[4] = compound: CCn1cc(-c2ccnc3[nH]c(-c4cccc(CN(C)C)c4)cc23)c(-c2ccc(NC(=O)N(C)C)cc2)n1
Method in brief: as §1

[5] = compound: CN1CCC(CNc2ccc3ncc(-c4cccc(OC(F)(F)F)c4)n3n2)CC1
Method in brief: as §1

saracatinib = compound: CN1CCN(CCOc2cc(OC3CCOCC3)c3c(Nc4c(Cl)ccc5c4OCO5)ncnc3c2)CC1 [saracatinib]
Method in brief: as §1

sotrastaurin = compound: CN1CCN(c2nc(C3=C(c4c[nH]c5ccccc45)C(=O)NC3=O)c3ccccc3n2)CC1 [sotrastaurin]
Method in brief: as §1

Measured: log2 fold change

FCGR2A (UniProt P12318)
inactive: vemurafenib 0 | [1] -0.009 | barasertib 0.016 | [2] -0.006 | volasertib 0.015 | [3] -0.02 | [4] -0.052 | [5] 0.064 | saracatinib -0.002 | sotrastaurin 0.021

FKBP7 (UniProt Q9Y680)
inactive: vemurafenib -0.005 | [1] 0.004 | barasertib 0.045 | [2] 0.019 | volasertib 0.025 | [3] 0 | [4] 0.064 | [5] -0.041 | saracatinib -0.022 | sotrastaurin 0.015

FLNC (UniProt Q14315)
inactive: vemurafenib 0.005 | [1] -0.004 | barasertib -0.014 | [2] 0.038 | volasertib 0.027 | [3] -0.017 | [4] -0.071 | [5] 0.07 | saracatinib -0.001 | sotrastaurin -0.023

FBXO5 (UniProt Q9UKT4)
inactive: vemurafenib 0.045 | [1] 0.069 | barasertib -0.039 | [2] 0.067 | volasertib -0.053 | [3] 0.066 | [4] 0.015 | [5] -0.147 | saracatinib 0.035 | sotrastaurin -0.009

FDX2 (UniProt Q6P4F2)
inactive: vemurafenib 0.022 | [1] -0.011 | barasertib 0.166 | [2] 0.069 | volasertib 0.038 | [3] -0.047 | [4] -0.264 | [5] -0.003 | saracatinib -0.122 | sotrastaurin -0.027

FAM98B (UniProt Q52LJ0)
inactive: vemurafenib 0.013 | [1] -0.005 | barasertib 0.028 | [2] -0.006 | volasertib -0.047 | [3] 0.001 | [4] -0.031 | [5] 0.014 | saracatinib -0.025 | sotrastaurin 0.028

FDXR isoform 7 (UniProt P22570)
inactive: vemurafenib 0.072 | [1] 0.02 | barasertib -0.037 | [2] -0.016 | volasertib -0.039 | [3] 0.025 | [4] -0.087 | [5] -0.016 | saracatinib 0.022 | sotrastaurin 0.043

FNIP1 isoform 3 (UniProt Q8TF40)
inactive: vemurafenib -0.059 | [1] 0.036 | barasertib -0.022 | [2] -0.012 | volasertib -0.109 | [3] -0.028 | [4] 0.037 | [5] -0.008 | saracatinib -0.012 | sotrastaurin 0.029

Random excerpt: 2 entries already listed.
FAM98B (UniProt Q52LJ0)
inactive: vemurafenib 0.013 | [1] -0.005 | barasertib 0.028 | [2] -0.006 | volasertib -0.047 | [3] 0.001 | [4] -0.031 | [5] 0.014 | saracatinib -0.025 | sotrastaurin 0.028

FDX2 (UniProt Q6P4F2)
inactive: vemurafenib 0.022 | [1] -0.011 | barasertib 0.166 | [2] 0.069 | volasertib 0.038 | [3] -0.047 | [4] -0.264 | [5] -0.003 | saracatinib -0.122 | sotrastaurin -0.027

Later entries

FLCN (UniProt Q8NFG4)
inactive: vemurafenib 0.019 | [1] -0.052 | barasertib 0.028 | [2] 0.007 | volasertib 0.009 | [3] -0.048 | [4] 0.204 | [5] -0.02 | saracatinib 0.024 | sotrastaurin 0.031

FASN (UniProt P49327)
inactive: vemurafenib -0.022 | [1] 0.029 | barasertib 0.02 | [2] -0.037 | volasertib -0.016 | [3] 0.005 | [4] -0.036 | [5] 0.009 | saracatinib -0.002 | sotrastaurin -0.014

FEZ2 isoform 2 (UniProt Q9UHY8)
inactive: vemurafenib 0.012 | [1] 0.03 | barasertib -0.05 | [2] 0.02 | volasertib 0.037 | [3] 0.023 | [4] -0.026 | [5] 0.022 | saracatinib -0.057 | sotrastaurin 0.039

FBXW8 (UniProt Q8N3Y1)
inactive: vemurafenib -0.052 | [1] 0.015 | barasertib -0.031 | [2] 0.201 | volasertib -0.144 | [3] 0.068

FKBP15 (UniProt Q5T1M5)
inactive: vemurafenib 0.014 | [1] 0.009 | barasertib 0.02 | [2] 0.021 | volasertib -0.011 | [3] -0.003 | [4] -0.015 | [5] 0.016 | saracatinib 0.003 | sotrastaurin -0.01

FERMT3 (UniProt Q86UX7)
inactive: vemurafenib 0.002 | [1] -0.012 | barasertib -0.008 | [2] -0.003 | volasertib 0.003 | [3] -0.019 | [4] -0.071 | [5] 0.02 | saracatinib -0.014 | sotrastaurin 0.014

FIP1L1 (UniProt Q6UN15)
inactive: vemurafenib -0.008 | [1] 0.036 | barasertib 0.043 | [2] 0.105 | volasertib 0 | [3] 0.024 | [4] 0.118 | [5] -0.054 | saracatinib 0.036 | sotrastaurin -0.051

FDFT1 (UniProt P37268)
active: sotrastaurin 0.437
inactive: vemurafenib -0.012 | [1] 0.111 | barasertib 0.023 | [2] 0.005 | volasertib -0.069 | [3] 0.01 | [4] -0.047 | [5] -0.022 | saracatinib -0.019

FKBP2 (UniProt P26885)
inactive: vemurafenib -0.008 | [1] 0.04 | barasertib -0.042 | [2] 0.015 | volasertib 0.021 | [3] -0.037 | [4] 0.292 | [5] -0.02 | saracatinib -0.064 | sotrastaurin 0.096

FLNB isoform 8 (UniProt O75369)
inactive: vemurafenib -0.004 | [1] 0.004 | barasertib 0.001 | [2] 0.008 | volasertib 0.01 | [3] -0.022 | [4] -0.051 | [5] 0.052 | saracatinib 0.017 | sotrastaurin -0.014

FBXL20 (UniProt Q96IG2)
inactive: vemurafenib -0.03 | [1] -0.026 | barasertib 0.152 | [2] 0.037 | volasertib -0.035 | [3] -0.01 | [4] 0.116 | [5] 0.006 | saracatinib -0.032 | sotrastaurin -0.011

FBXO3 (UniProt Q9UK99)
inactive: vemurafenib -0.018 | [1] 0.031 | barasertib -0.089 | [2] -0.04 | volasertib -0.061 | [3] 0.029 | [4] -0.122 | [5] 0.038 | saracatinib -0.022 | sotrastaurin 0.017

FLAD1 (UniProt Q8NFF5)
inactive: vemurafenib -0.051 | [1] 0.022 | barasertib -0.063 | [2] 0.055 | volasertib -0.028 | [3] 0.01 | [4] -0.002 | [5] -0.035 | saracatinib -0.001 | sotrastaurin 0.075

FLII (UniProt Q13045)
inactive: vemurafenib -0.02 | [1] 0.026 | barasertib -0.01 | [2] -0.063 | volasertib -0.023 | [3] 0.006 | [4] 0.043 | [5] -0.062 | saracatinib 0.007 | sotrastaurin 0.038

FGF2 (UniProt P09038)
inactive: vemurafenib -0.014 | [1] 0.03 | barasertib -0.018 | [2] -0.117 | volasertib 0.026 | [3] 0.089 | [4] -0.132 | [5] 0.072 | saracatinib -0.018 | sotrastaurin 0.031

FAM8A1 (UniProt Q9UBU6)
inactive: vemurafenib -0.042 | [1] 0.071 | barasertib 0.032 | [2] 0.064 | volasertib -0.058 | [3] -0.024 | [4] -0.182 | [5] 0.154 | saracatinib 0.037 | sotrastaurin -0.029

FBLL1 (UniProt A6NHQ2)
inactive: vemurafenib 0.081 | [1] 0.019 | barasertib 0.107 | [2] 0.003 | volasertib -0.041 | [3] -0.014 | [5] 0.046 | saracatinib -0.075 | sotrastaurin 0.056
active: [4] -0.307

FAT3 isoform 1 (UniProt Q8TDW7)
inactive: vemurafenib 0.003 | [1] -0.005 | barasertib 0.024 | [2] 0.131 | volasertib -0.065 | [3] 0.119 | [4] 0.122 | [5] -0.162 | saracatinib 0.122 | sotrastaurin 0.028

FKBP4 (UniProt Q02790)
inactive: vemurafenib -0.014 | [1] -0.004 | barasertib -0.037 | [2] -0.015 | volasertib -0.005 | [3] -0.004 | [4] -0.012 | [5] 0.014 | saracatinib -0.002 | sotrastaurin 0.014

FOPNL (UniProt Q96NB1)
inactive: vemurafenib 0.034 | [1] 0.113 | barasertib 0.12 | [2] 0.117 | volasertib -0.02 | [3] -0.065 | [4] -0.082 | [5] 0.024 | saracatinib 0.081 | sotrastaurin 0.01

FGGY isoform 3 (UniProt Q96C11)
inactive: vemurafenib 0.089 | [1] 0.044 | barasertib -0.271 | [2] 0.018 | volasertib 0.004 | [3] -0.048 | [4] 0.207 | [5] -0.094 | saracatinib 0.048 | sotrastaurin 0.016

FBXO2 (UniProt Q9UK22)
inactive: vemurafenib 0.222 | [1] 0.04 | barasertib 0.115 | [2] 0.026 | volasertib -0.054 | [3] 0.003 | [4] 0.131 | [5] -0.027 | saracatinib -0.149 | sotrastaurin 0.008
